Measurements reported in PubChem BioAssay AID1224830 (NIAID, 2016)
The deposit covers about 18,000 reagents; this is a part drawn at random. Over the whole deposit, about 2,900 (16%) were called active. 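Calls are made per well; low scores hint the gene aids the LPS response, high scores that it dampens it.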 A number with no mark means an inactive call. Repeated entries: four replicate wells of each siRNA pool.

Assay: 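Genes whose knock-down alters the TNF-alpha reporter response to LPS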 (primary screen)
System: human THP-1 monocytic leukaemia cells, TNF dual-luciferase reporter clone, PMA-differentiated to macrophage-like cells
Reagent: siRNA pool against human genes, 50 nM
Duration: LPS for 4 h, given about 3 days after siRNA transfection
Challenge: bacterial LPS (TLR4 ligand), 10 ng/ml
Measured: 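TNF firefly reporter luminescence divided by renilla, normalised to the plate median, then turned into a robust z-score for each replicate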
Reading the numbers: TNF reporter robust z-score: higher = stronger TNF reporter response to LPS
Call rule: 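a well is active when its z-score exceeds 2.8 or falls below -1.5; control wells carry no call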

gene symbol	TNF reporter robust z-score
NDUFB3	-1.68 (active)
NDUFB3	-1.35
NDUFB3	-1.56 (active)
NDUFB3	-1.23
AKR1C1	0.54
AKR1C1	-0.61
AKR1C1	-0.45
AKR1C1	-0.02
CPT1C	-0.7
CPT1C	0.54
CPT1C	-0.5
CPT1C	-0.06
IL6ST	0.66
IL6ST	0.64
IL6ST	1.57
IL6ST	1.46
RAMP2	-0.64
RAMP2	-0.06
RAMP2	-0.56
RAMP2	0
SFMBT1	1.11
SFMBT1	0.17
SFMBT1	0.25
SFMBT1	-0.2
CRYBB3	0.48
CRYBB3	0.32
CRYBB3	0.24
CRYBB3	2.21
UQCRC1	1.66
UQCRC1	2.41
UQCRC1	0.37
UQCRC1	0.41
ARHGAP12	0.45
ARHGAP12	-0.62
ARHGAP12	0.11
ITPRIPL1	0.23
ITPRIPL1	-0.51
ITPRIPL1	-0.85
ITPRIPL1	2.44
STMN2	-1.63 (active)
STMN2	-1.14
STMN2	-1.62 (active)
STMN2	-1.77 (active)
B3GNT3	-0.83
B3GNT3	-0.53
B3GNT3	-0.48
B3GNT3	-0.22
ARAP1	-0.66
ARAP1	-0.18
ARAP1	-0.53
ARAP1	-0.62
CD34	-0.27
CD34	0
CD34	-0.85
CD34	-0.17
PSMD14	-1.18
PSMD14	0.62
PSMD14	0.46
PSMD14	0.25
NCS1	-0.73
NCS1	-0.95
NCS1	-0.51
NCS1	-0.36
DEGS1	-0.65
DEGS1	0.02
DEGS1	-0.91
DEGS1	0
GCFC2	-1.3
GCFC2	-0.43
GCFC2	-0.06
GCFC2	0.14
NUP188	-1.28
NUP188	-1.23
NUP188	-1.18
NUP188	-1.36
INKA1	0.48
INKA1	-0.42
INKA1	-0.6
INKA1	0.24
CFAP299	-0.28
CFAP299	-0.68
CFAP299	-0.97
CFAP299	-0.33
BCL9	-0.25
BCL9	-0.23
BCL9	-0.37
BCL9	-0.08
ICA1	-0.66
ICA1	-0.06
ICA1	0.07
ICA1	0.1
TPRX1	0.82
TPRX1	0.07
TPRX1	-0.03
TPRX1	0.18
KIFC3	-0.11
KIFC3	0.73
KIFC3	1.12
KIFC3	1.03
SUPV3L1	-0.9
SUPV3L1	-1.12
SUPV3L1	-1.13
SUPV3L1	-1.09
DIPK1A	-0.12
DIPK1A	0.19
DIPK1A	-1.01
DIPK1A	0
HHIPL2	4.26 (active)
HHIPL2	0
HHIPL2	0.04
HHIPL2	1.02
YAF2	1.42
YAF2	-0.23
YAF2	0.27
YAF2	0.58
GCSAM	0.18
GCSAM	-0.55
GCSAM	-0.24
GCSAM	-0.15
CSRNP3	-0.36
CSRNP3	-0.67
CSRNP3	0.06
CSRNP3	-1.43
NDUFAB1	0
NDUFAB1	-0.05
NDUFAB1	0.05
NDUFAB1	0.65
AQR	-0.36
AQR	-0.21
AQR	-0.82
AQR	0.22
CARD16	1.62
CARD16	1.53
CARD16	5.34 (active)
CARD16	0.52
CENPO	-1.91 (active)
CENPO	-0.58
CENPO	-1.25
CENPO	-1.53 (active)
CCT4	-0.79
CCT4	-0.47
CCT4	-0.24
CCT4	0.53

Reformatted: 19 of the entries above
HHIPL2: TNF reporter robust z-score = 0
HHIPL2: TNF reporter robust z-score = 0.04
HHIPL2: TNF reporter robust z-score = 1.02
YAF2: TNF reporter robust z-score = 1.42
YAF2: TNF reporter robust z-score = -0.23
YAF2: TNF reporter robust z-score = 0.27
YAF2: TNF reporter robust z-score = 0.58
GCSAM: TNF reporter robust z-score = 0.18
GCSAM: TNF reporter robust z-score = -0.55
GCSAM: TNF reporter robust z-score = -0.24
GCSAM: TNF reporter robust z-score = -0.15
CSRNP3: TNF reporter robust z-score = -0.36
CSRNP3: TNF reporter robust z-score = -0.67
CSRNP3: TNF reporter robust z-score = 0.06
CSRNP3: TNF reporter robust z-score = -1.43
NDUFAB1: TNF reporter robust z-score = 0
NDUFAB1: TNF reporter robust z-score = -0.05
NDUFAB1: TNF reporter robust z-score = 0.05
NDUFAB1: TNF reporter robust z-score = 0.65
